PubChem BioAssay AID652259, Drosophila RNAi Screening Center, 2013

Screen: 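Genome-wide hunt for genes that control Wingless pathway activity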 (primary screen)
Cell system: Drosophila clone 8 imaginal disc epithelial cells
Reagent: long dsRNA against Drosophila genes
Conditions: pathway stimulated by co-transfected Wingless expression plasmid
Measurement: 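Dual luciferase reads per well after Wingless plasmid stimulation: reporter firefly light and Renilla control light; activity is firefly divided by Renilla, a ratio not deposited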
Reading the numbers: firefly reporter light: higher = more Wg reporter light, before normalisation; Renilla control light: higher = more transfected or surviving cells
Hit rule: 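Strong candidates differ from their plate mean by at least two out of four per-plate statistical tests; weak candidates meet just one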
Calls: active = candidate regulator (raises or lowers reporter); inactive = not a candidate
The screen tested about 22,000 reagents; shown is an unselected part of those with a known target gene and a result. Over the whole deposit, 233 (1.1%) are marked active. 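Light values are raw, unnormalised plate reads; the ratio scores behind the reporter calls were not deposited.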 The numbers tell different reagents against one gene apart. The record does not give: the amount of reagent, the time to read-out, the dose of the treatment.

With knock-down of RpS17 (Ribosomal protein S17) the results were firefly reporter light, replicate 1 = 4816; Renilla control light, replicate 1 = 2547; inactive.
Against nonC (no-on-and-no-off transient C) #1 the deposit lists firefly reporter light, replicate 1 = 1411; firefly reporter light, replicate 2 = 7984; Renilla control light, replicate 1 = 585; Renilla control light, replicate 2 = 2832; inactive.
For nonC (no-on-and-no-off transient C) #2, the values are firefly reporter light, replicate 1 = 15936; Renilla control light, replicate 1 = 6853; inactive.
For CG3961 #1 the deposit lists firefly reporter light, replicate 1 = 5736; Renilla control light, replicate 1 = 2084; inactive.
For CG3961 #2, the values are firefly reporter light, replicate 1 = 9708; Renilla control light, replicate 1 = 3362; inactive.
Depletion of CG1092 resulted in: firefly reporter light, replicate 1 = 9704; Renilla control light, replicate 1 = 4156; inactive.
Knock-down of ed (echinoid) #1 gave: firefly reporter light, replicate 1 = 10160; Renilla control light, replicate 1 = 4320; inactive.
Knock-down of ed (echinoid) #2 came out at: firefly reporter light, replicate 1 = 2993; firefly reporter light, replicate 2 = 7351; Renilla control light, replicate 1 = 1440; Renilla control light, replicate 2 = 2790; inactive.
For ed (echinoid) #3 the deposit lists firefly reporter light, replicate 1 = 3798; firefly reporter light, replicate 2 = 10224; Renilla control light, replicate 1 = 1444; Renilla control light, replicate 2 = 3285; inactive.
For ed (echinoid) #4, the values are firefly reporter light, replicate 1 = 3061; firefly reporter light, replicate 2 = 9233; Renilla control light, replicate 1 = 1312; Renilla control light, replicate 2 = 3140; inactive.
With knock-down of epsilonCOP (Coat Protein (coatomer) epsilon), the record shows firefly reporter light, replicate 1 = 10544; Renilla control light, replicate 1 = 6193; inactive.
Silencing of CG3097 came out at: firefly reporter light, replicate 1 = 22989; Renilla control light, replicate 1 = 10621; inactive.
hd (humpty dumpty) scored firefly reporter light, replicate 1 = 12739; Renilla control light, replicate 1 = 4148; inactive.
For CG33287 the deposit lists firefly reporter light, replicate 1 = 4.33e5; firefly reporter light, replicate 2 = 4.72e5; Renilla control light, replicate 1 = 1.65e5; Renilla control light, replicate 2 = 1.63e5; inactive.
For CG12299, the entry reads reporter change call, replicate 1 = Wg reporter activity raised; firefly reporter light, replicate 1 = 25568; Renilla control light, replicate 1 = 2164; active.
With knock-down of CG15742 the results were firefly reporter light, replicate 1 = 3172; firefly reporter light, replicate 2 = 7490; Renilla control light, replicate 1 = 1165; Renilla control light, replicate 2 = 2753; inactive.
After knock-down of CG5888, the screen gave firefly reporter light, replicate 1 = 3786; Renilla control light, replicate 1 = 1431; inactive.
Knock-down of kek4 (kekkon 4) resulted in: firefly reporter light, replicate 1 = 10679; Renilla control light, replicate 1 = 2197; inactive.
With knock-down of CG4287, the screen gave firefly reporter light, replicate 1 = 1831; firefly reporter light, replicate 2 = 5588; Renilla control light, replicate 1 = 501; Renilla control light, replicate 2 = 2170; inactive.
mTerf3 (mitochondrial transcription termination factor 3) gave firefly reporter light, replicate 1 = 7705; Renilla control light, replicate 1 = 3139; inactive.
Knock-down of CG12895 resulted in: firefly reporter light, replicate 1 = 2904; firefly reporter light, replicate 2 = 8803; Renilla control light, replicate 1 = 748; Renilla control light, replicate 2 = 2721; inactive.
Against CG13157, the values are firefly reporter light, replicate 1 = 6374; Renilla control light, replicate 1 = 2643; inactive.
CG30349 #1 scored firefly reporter light, replicate 1 = 2845; firefly reporter light, replicate 2 = 5504; Renilla control light, replicate 1 = 676; Renilla control light, replicate 2 = 2662; inactive.
Against CG30349 #2 the deposit lists firefly reporter light, replicate 1 = 1770; firefly reporter light, replicate 2 = 7360; Renilla control light, replicate 1 = 459; Renilla control light, replicate 2 = 2561; inactive.
For Sirup (Starvation-upregulated protein), the values are firefly reporter light, replicate 1 = 3211; firefly reporter light, replicate 2 = 7617; Renilla control light, replicate 1 = 907; Renilla control light, replicate 2 = 4134; inactive.
